These substances were tested on P20.1 antibody-Sepharose (assay: Pull-down efficiency with P20.1 antibody-immobilized beads). Conditions: HEK293T culture supernatant, sandwich ELISA.
Assay type: binding, mouse
Protocol: Three different hGH-γC-P4 fusion proteins, which have P4×1, P4×3 or P4×5, were separately expressed in HEK293T cells. The fusion protein in the separate cell culture supernatant was quantified by the sandwich ELISA (which adopts a system of hGH antibody-mediated capture+anti-BAS serum-mediated detection, and is not dependent on the responsiveness to the P20.1 antibody) (before pull-down). Aside from this, to 1 mL of the cell culture supernatant, 20 μL of the P20.1 antibody-Sepharose (bead form) was added, and then the mixture was allowed to react at 4° C. for 1 hour. After the beads were precipitated by centrifugation, the fusion protein in the supernatant was quantified by the sandwich ELISA (which adopts a system of hGH antibody-mediated capture+anti-BAS serum-mediated detection, and is not dependent on the responsiveness to the P20.1 antibody) (after pull-down). The fusion protein purified with Ni-NTA agarose was used as a standard, and based on the standard curve, the fusion protein concentrations before and after pull-down by the P20.1 antibody were determined. As is clear from Table 4, 3 to 5 repeats of the P4 sequence achieves the binding efficiency of about 80%.

Substance	Fusion protein Before pull-down [µg/mL]
P4 × 3: hGH/fibrinogen γC fusion protein tagged with 3 repeats of the P4 sequence GYPGQV	0.98
P4 × 5: hGH/fibrinogen γC fusion protein tagged with 5 repeats of the P4 sequence GYPGQV	0.85
P4: hGH/fibrinogen γC fusion protein tagged with 1 repeat of the P4 sequence GYPGQV	0.7

Source: US8975384B2, “Tag peptide and use thereof” (Osaka University, priority 2008, dated 2015)
